Test results as given in the supplement of paper PMC9254222.
Over roughly 1,100 compounds, “Wnt reporter firefly/Renilla luciferase ratio relative to plate median” has its median near 1.1; the highest 2% begin near 1.6. This is a selection; strong and weak results do not stand in their true shares.

Tested on: HEK293T (UBE3A T485A transfected, BAR Wnt reporter)
Experiment: Wnt reporter firefly/Renilla luciferase ratio relative to plate median (fold (linear ratio)); higher = more Wnt/beta-catenin reporter activation
Conditions: 24 h
In short: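 Chemicals at 0.01–100 uM were left on transfected HEK293T cells for 24 h, after a four-hour wait following transfection. The cells held a BAR firefly luciferase Wnt reporter, TK-Renilla and an expression plasmid. Wnt activity, as the firefly/Renilla ratio from a Dual-Glo luciferase readout, and cell health, as raw Renilla, were median-centred within each plate. Results average four biological replicates.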

SMILES | Wnt reporter firefly/Renilla luciferase ratio (concentration: 0.1 uM) | Wnt reporter firefly/Renilla luciferase ratio (concentration: 1 uM) | Wnt reporter firefly/Renilla luciferase ratio (concentration: 10 uM) | Wnt reporter firefly/Renilla luciferase ratio (concentration: 100 uM) | Wnt reporter firefly/Renilla luciferase ratio (concentration: 0.01 uM)
CCCSC(=O)N(CCC)CCC [Vernolate] | 0.888 | 1.38 | 1.11 | 0.997 | 
c1ccc(N=Nc2ccccc2)cc1 [Azobenzene] | 1.35 | 1.05 | 1.38 | 1.1 | 
Cc1nn(-c2cc(NS(C)(=O)=O)c(Cl)cc2Cl)c(=O)n1C(F)F [Sulfentrazone] | 0.917 | 1.08 | 1.09 | 0.657 | 0.946
CCCCCCCCn1sccc1=O [Octhilinone] | 1.02 | 1.15 | 1.07 |  | 
Oc1ccc(C(c2ccc(O)cc2)(C(F)(F)F)C(F)(F)F)cc1 [Bisphenol AF] | 0.887 | 1.08 | 0.718 | 0.605 | 
O=Cc1ccco1 [Furfural] | 0.772 | 0.902 | 0.924 | 1.01 | 
COCC(=O)N(c1c(C)cccc1C)C(C)C(=O)OC (centres undefined) [Metalaxyl] | 1.06 | 0.996 | 1.2 | 1.05 | 1.26
COc1cc(C=O)cc2c1[C@H](COC(N)=O)[C@]1(OC(C)=O)ON2C[C@H]2[C@@H]1N2C(C)=O | 0.42 |  |  |  | 
CCOC(=O)c1ccccc1C(=O)OCC [Diethyl phthalate] | 0.841 | 1.05 | 1.21 | 1.26 | 
Clc1ccccc1-c1nnc(-c2ccccc2Cl)nn1 [Clofentezine] | 1.25 | 0.999 | 1.19 | 1.59 | 1.31
CCC(C)(NC(=O)c1cc(Cl)c(C)c(Cl)c1)C(=O)CCl (centres undefined) [Zoxamide] | 1.45 | 1.24 | 1.32 |  | 1.47
Oc1ccccc1Cl [2-Chlorophenol] | 0.951 | 0.944 | 1.24 | 1.52 | 
O=C(O)C(Cl)(Cl)Cl [Trichloroacetic acid] | 1.28 | 1.04 | 1.09 | 1.37 | 
Nc1c(Cl)c(Cl)nc(C(=O)O)c1Cl [Picloram] | 1.47 | 1 | 1.13 | 1.28 | 0.972
CCN1CCC2(CC1)COc1cc3c(cc12)N(C(=O)c1ccc(-c2ccc(-c4nnc(C)o4)cc2C)cc1)CC3.Cl | 1.26 | 0.778 | 0.416 |  | 
CCOP(=S)(OCC)SCn1c(=O)oc2cc(Cl)ccc21 [Phosalone] | 1.45 | 1.27 | 1.03 | 0.607 | 1.62
CCCCCOC(=O)c1ccccc1C(=O)OCCCCC [Dipentyl phthalate] | 1.06 | 1.36 | 1.14 | 1.15 | 
Oc1ccc(Cl)cc1Cl [2,4-Dichlorophenol] | 1.06 | 1.15 | 1.36 | 1.47 | 
CC(C)(c1ccccc1)c1ccc(O)c(C(C)(C)c2ccccc2)c1 [2,4-Bis(1-methyl-1-phenylethyl)phenol] | 0.975 | 1.08 | 1.09 | 0.94 | 
COc1cnc(OC)n2nc(NS(=O)(=O)c3c(OCC(F)F)cccc3C(F)(F)F)nc12 [Penoxsulam] |  |  |  | 1.75 | 
CC(C)(OO)c1ccccc1 [Cumene hydroperoxide] | 0.958 | 0.714 | 0.747 | 0.824 | 
COc1ccc(C)cc1N [2-Methoxy-5-methylaniline] | 1.14 | 1.31 | 1.26 | 1.29 | 

SMILES | Wnt reporter firefly/Renilla luciferase ratio (concentration: 0.1 uM) | Wnt reporter firefly/Renilla luciferase ratio (concentration: 1 uM) | Wnt reporter firefly/Renilla luciferase ratio (concentration: 10 uM) | Wnt reporter firefly/Renilla luciferase ratio (concentration: 100 uM) | Wnt reporter firefly/Renilla luciferase ratio (concentration: 0.01 uM)
CCOC1Oc2ccc(OS(C)(=O)=O)cc2C1(C)C (centres undefined) [Ethofumesate] | 0.973 | 1.03 | 1.14 | 1.86 | 1.05
CCC1(c2ccccc2)C(=O)N=C([O-])NC1=O.[Na+] (centres undefined) [Phenobarbital sodium] | 1.14 | 1.18 | 1.27 | 1.16 | 
CNC(=O)Oc1cccc2ccccc12 [Carbaryl] | 1.18 | 1.07 | 0.714 | 0.629 | 0.987
C/C(=N\C#N)N(C)Cc1ccc(Cl)nc1 [Acetamiprid] | 0.96 | 0.904 | 1.08 | 1.18 | 1.26
O=C(O)C1C2CCC(O2)C1C(=O)O (centres undefined) [Endothal] | 1.14 | 1.01 | 1.23 |  | 
O=C(Nc1ccc2[nH]ccc2c1)c1cc2cc(F)ccc2n1Cc1cccc(F)c1 | 0.948 | 0.899 | 0.16 |  | 
CCOP(=S)(OCC)Oc1nc(Cl)c(Cl)cc1Cl [Chlorpyrifos] | 1.11 | 1.01 | 0.926 | 1.12 | 
C[C@]12CCC(=O)C=C1CC[C@@H]1[C@@H]2CC[C@]2(C)C(=O)CC[C@@H]12 [4-Androstene-3,17-dione] | 1.04 | 1.01 | 1.12 | 0.219 | 
C=CC(=O)OCCCCCC(C)C [Isooctyl acrylate] | 1 | 1.13 | 1.08 | 1.03 | 
Cc1c(F)c(F)c(COC(=O)C2C(/C=C(\Cl)C(F)(F)F)C2(C)C)c(F)c1F (centres undefined) [Tefluthrin] | 1.35 | 1.02 | 1.26 | 0.969 | 1.27
CC(C)C1(C)N=C(c2ncccc2C(=O)O)NC1=O (centres undefined) [Imazapyr] | 1.29 | 1.04 | 1.09 | 1.24 | 1.14
ClCCOCCCl [Bis(2-chloroethyl) ether] | 1.05 | 0.921 | 1.24 | 1.38 | 
COP(=S)(OC)Oc1ccc([N+](=O)[O-])cc1 [Methyl parathion] | 1.05 | 1.21 | 1.02 | 0.89 | 1.23
O=[N+]([O-])c1ccc(O)c([N+](=O)[O-])c1 [2,4-Dinitrophenol] | 1.04 | 1.12 | 0.963 | 0.34 | 
Cc1nc(N(C)C)nc(OC(=O)N(C)C)c1C [Pirimicarb] | 1.15 | 1.14 | 0.828 | 0.882 | 1.19
COP(=O)(OC)O/C(C)=C/C(=O)N(C)C [Dicrotophos] | 1.12 | 1.1 | 0.957 | 1.09 | 1.29
CCc1cccc(C)c1N(C(=O)CCl)C(C)COC (centres undefined) [Metolachlor] | 1.6 | 0.921 | 0.833 | 0.28 | 0.768
CNC(=O)/C=C(\C)OP(=O)(OC)OC [Monocrotophos] | 1.1 | 1.22 | 1.06 | 1.12 | 0.971
[Cl-].[Cl-].[Hg+2] [Mercuric chloride] | 1.21 | 1.07 | 1.69 |  | 
N=C(Nc1ccccc1)Nc1ccccc1 [1,3-Diphenylguanidine] | 1.06 | 1.28 | 0.977 | 1.02 | 
Nc1ccc(Oc2ccc(N)cc2)cc1 [4,4'-Oxydianiline] | 1.08 | 1.16 | 0.948 | 1.33 | 
CCCN(CC)CC1COC2(CCC(C(C)(C)C)CC2)O1 (centres undefined) [Spiroxamine] | 0.9 | 1.01 | 1.13 | 0.569 | 0.79

SMILES | Wnt reporter firefly/Renilla luciferase ratio (concentration: 0.1 uM) | Wnt reporter firefly/Renilla luciferase ratio (concentration: 1 uM) | Wnt reporter firefly/Renilla luciferase ratio (concentration: 10 uM) | Wnt reporter firefly/Renilla luciferase ratio (concentration: 100 uM) | Wnt reporter firefly/Renilla luciferase ratio (concentration: 0.01 uM)
Cl[C@H]1[C@H](Cl)[C@@H](Cl)[C@H](Cl)[C@@H](Cl)[C@@H]1Cl [beta-Hexachlorocyclohexane] | 1.05 | 0.913 | 1.12 | 1.03 | 
Cc1ccccc1COC1CC2(C(C)C)CCC1(C)O2 (centres undefined) [Cinmethylin] | 0.993 | 1.05 | 1.27 | 1.3 | 0.992
Fc1ccc(Oc2ccnc3cc(Cl)cc(Cl)c23)cc1 [Quinoxyfen] | 1.1 | 0.954 | 1.01 | 0.751 | 0.835
CN1CSC(=S)N(C)C1 [Dazomet] | 1.48 | 1.03 | 0.788 | 0.472 | 1.4
CCc1ccc(C(=O)NN(C(=O)c2cc(C)cc(C)c2)C(C)(C)C)cc1 [Tebufenozide] | 1.01 | 1.12 | 1.19 | 0.567 | 1.05
Cc1ccc(O)c(C)c1 [2,4-Dimethylphenol] | 0.977 | 0.844 | 1.08 | 1.33 | 
c1ccc(C2CO2)cc1 (centres undefined) [Styrene oxide] |  |  |  | 1.71 | 
ClC1=C(Cl)[C@]2(Cl)[C@H]3[C@H]([C@@H]4C=C[C@H]3C4)[C@@]1(Cl)C2(Cl)Cl [Aldrin] | 1.2 | 0.895 | 1.15 | 1.43 | 
CCC(C)Nc1c([N+](=O)[O-])cc(C(C)(C)C)cc1[N+](=O)[O-] (centres undefined) [Butralin] | 1.04 | 1.17 | 1.39 | 1.3 | 1.33
CC(C)N1C(=O)c2ccccc2NS1(=O)=O [Bentazone] | 0.947 | 0.964 | 0.949 | 0.329 | 1.46
CC(COc1ccc(Oc2ccccc2)cc1)Oc1ccccn1 (centres undefined) [Pyriproxyfen] | 0.977 | 1.04 | 1.03 | 0.55 | 1.12
ClC1=C(Cl)C2(Cl)C3C4OC4C(Cl)C3C1(Cl)C2(Cl)Cl (centres undefined) [Heptachlor epoxide] | 1.18 | 1.23 | 1.06 | 1.5 | 
ClC(Cl)c1ccccc1 [Benzal chloride] | 1.18 | 1.06 | 1.22 | 1.46 | 
CON=C(C(=O)OC)c1ccccc1COc1ccccc1C [Kresoxim methyl] | 1.2 | 1.07 | 0.405 | 0.618 | 0.927
O=C(O)CNCP(=O)(O)O [Glyphosate] |  |  |  | 1.75 | 
COC(=CC(N)=O)C(C)C(C=Cc1csc(-c2csc(C(C)C=CC=CC(C)C)n2)n1)OC (centres undefined) [Myxothiazol] | 0.921 | 0.539 | 0.492 |  | 1.41
CCC(C)(C)c1ccc(O)cc1 [4-(2-Methylbutan-2-yl)phenol] | 0.958 | 0.879 | 0.94 | 0.901 | 
O=C(Nc1ccccc1)Nc1ccnc(Cl)c1 [Forchlorfenuron] | 1.16 | 0.957 | 0.694 |  | 1.1
CN(C)C(=O)Nc1ccc(Cl)cc1 [Monuron] | 0.888 | 0.901 | 1.09 | 1.04 | 
Cl[C@H]1[C@H](Cl)[C@@H](Cl)[C@@H](Cl)[C@H](Cl)[C@H]1Cl [Lindane] | 1.12 | 1.21 | 1.14 | 1.46 | 1.12
CC(Oc1cccc(Cl)c1)C(=O)O (centres undefined) [Cloprop] | 1.51 | 1.12 | 1.28 | 1.45 | 1.31

Copied from the list.
Entry for `O=C(O)CNCP(=O)(O)O` [Glyphosate] under Wnt reporter firefly/Renilla luciferase ratio (concentration: 100 uM): 1.75
Entry for `COC(=CC(N)=O)C(C)C(C=Cc1csc(-c2csc(C(C)C=CC=CC(C)C)n2)n1)OC` (centres undefined) [Myxothiazol] under Wnt reporter firefly/Renilla luciferase ratio (concentration: 0.1 uM): 0.921
Entry for `CON=C(C(=O)OC)c1ccccc1COc1ccccc1C` [Kresoxim methyl] under Wnt reporter firefly/Renilla luciferase ratio (concentration: 100 uM): 0.618
